{"source": "patent US11845782B2", "about": "“Relaxin fusion polypeptides and uses thereof” (MedImmune Limited, priority 2017, dated 2023)", "system": "isoproterenol-induced cardiac hypertrophy", "test": "Isoproterenol-induced cardiac hypertrophy and fibrosis in mice (Example 8)", "assay_type": "in vivo, C57BL/6J male mice", "conditions": "15 mg/kg/day by minipump", "description": "A total of 6 study groups with n=8 mice (C57BL/6J male mice) per group were performed. The groups were: vehicle, Fc_hRLX2_15-15AA, isoproterenol, isoproterenol+enalapril, isoproterenol+recombinant human relaxin 2, and isoproterenol+Fc_hRLX2_15-15AA. Drugs and vehicle were delivered by Alzet minipumps (model 1002; rate: 0.25 μl/hr (±0.05), 6 μl one day @37° C.) or subcutaneous injection for Fc_hRLX2_15-15AA.\nIsoproterenol was made as follows: A 500 mM solution (123.9 mg/ml) freshly in 0.0002% Na-Asc saline, […] filtered). The final [Iso] concentration in minipump: 15 mg/kg/day=15 mg/247.72/6 μl/1000 g=10.1 mM per gram of body weight (BVV). Vehicle was 0.0002% Na-ascorbate, Sigma catalog #A7631.\nEnalapril was made as follows: Enalapril is used as maleate salt, MW of 492.52, Sigma catalog #E6888. A 200 mM stock solution (98.5 mg/ml) freshly in methanol, […] filtered. The final concentration in minipump: 2.5 mg/kg/day=2.5 mg/492.52/6 μl/1000 g=0.846 mM per gram of body weight (BVV), i.e., one minipump for 30 gram of mouse will need 19.0 μl of 200 mM Ena (150 μl×0.846/200 mM×30 g BW). […]\nAt the end of the study, body weight, heart weight, lung weight, and tibia length were measured. […]\nFibrosis was measured based on the detection of hydroxyproline (Total collagen assay, QuickZyme Biosciences). […]", "data": [{"smiles": "CC(C)NCC(O)c1ccc(O)c(O)c1", "note": "(centres unmarked) [isoproterenol]", "values": [{"measurement": "cardiac hypertrophy (HW/TL) compared to vehicle or Fc_hRLX2_15-15AA alone", "result": "significant increase"}, {"measurement": "fibrosis (collagen content) compared to vehicle or Fc_hRLX2_15-15AA alone", "result": "significant increase"}]}]}
